Our source for the fluorescence level values is patent publication US20240285586A1, “METHODS FOR TREATING BACTERIAL CELL POPULATIONS” (THE HONG KONG POLYTECHNIC UNIVERSITY, priority 2021, published 2024).

Molecules are shown by their SMILES.

The subject of the series is E. coli BW25113 wild type. As to the kind of experiment: Antibiotic accumulation assay (BOCILLIN, flow cytometry), wild type. As to conditions: control for the substance's own fluorescence signal (FIG. 10A). It is filed as cell-based, Escherichia coli. Here is the method:
Antibiotic accumulation assay. The overnight bacteria culture was diluted 100-fold in LB broth and cultivated for about 1 hr until the OD600 value reached 0.2 (exponential phase). Aliquots of this exponential phase culture were washed and re-suspended in saline, cultured at 37° C. under constant shaking (250 rpm) for 24 hrs, followed by addition of CCCP (1 μM). After 5 mins, BOCILLIN™ FL Penicillin (10 μg/mL) was added and incubated at 37° C. with shaking at 250 rpm for 1 hr. Upon washing twice with PBS, fluorescence signal was measured by flow cytometry CytoFLEX (Beckman). Microorganisms were identified by FSC (forward scatter) and SSC (side scatter) parameters. Fluorescence intensity was measured at 488-nm excitation, 525-nm emission.
For orientation: Flow cytometry measures light scatter and fluorescence of single cells or particles in a stream.

For `Cc1cc(C)n2c1C=C1C=CC(CCC(=O)Nc3ccc(OCC(=O)N[C@@H]4C(=O)N5[C@@H]4SC(C)(C)[C@@H]5C(=O)[O-])cc3)=[N+]1[B-]2(F)F.[Na+]` [BOCILLIN], the fluorescence level is listed as around 45000 RFU.

`N#CC(C#N)=NNc1cccc(Cl)c1` [CCCP, carbonyl cyanide-m-chlorophenylhydrazone] displayed a fluorescence level of around 250 RFU.
